Measurements from “University of Dundee, Small-Polar-MMV Screening Library” (2021), ChEMBL document CHEMBL3988442.

By UniProt entry, the sequences of proteins in these tests, tags left out.
UniProt P9WPC5, whole entry: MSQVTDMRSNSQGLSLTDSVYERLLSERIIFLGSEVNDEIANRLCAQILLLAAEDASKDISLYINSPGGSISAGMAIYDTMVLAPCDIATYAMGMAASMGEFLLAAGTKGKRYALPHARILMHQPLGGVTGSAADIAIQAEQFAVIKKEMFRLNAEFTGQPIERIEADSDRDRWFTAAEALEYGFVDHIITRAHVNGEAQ
UniProt P9WPC3, whole entry partner: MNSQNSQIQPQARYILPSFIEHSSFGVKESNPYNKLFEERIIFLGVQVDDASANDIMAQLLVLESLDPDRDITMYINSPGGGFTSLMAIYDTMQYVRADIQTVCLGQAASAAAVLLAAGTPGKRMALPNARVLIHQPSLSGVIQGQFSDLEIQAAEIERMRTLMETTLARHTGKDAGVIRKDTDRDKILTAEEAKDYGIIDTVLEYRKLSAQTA
UniProt I6X8D2, whole entry: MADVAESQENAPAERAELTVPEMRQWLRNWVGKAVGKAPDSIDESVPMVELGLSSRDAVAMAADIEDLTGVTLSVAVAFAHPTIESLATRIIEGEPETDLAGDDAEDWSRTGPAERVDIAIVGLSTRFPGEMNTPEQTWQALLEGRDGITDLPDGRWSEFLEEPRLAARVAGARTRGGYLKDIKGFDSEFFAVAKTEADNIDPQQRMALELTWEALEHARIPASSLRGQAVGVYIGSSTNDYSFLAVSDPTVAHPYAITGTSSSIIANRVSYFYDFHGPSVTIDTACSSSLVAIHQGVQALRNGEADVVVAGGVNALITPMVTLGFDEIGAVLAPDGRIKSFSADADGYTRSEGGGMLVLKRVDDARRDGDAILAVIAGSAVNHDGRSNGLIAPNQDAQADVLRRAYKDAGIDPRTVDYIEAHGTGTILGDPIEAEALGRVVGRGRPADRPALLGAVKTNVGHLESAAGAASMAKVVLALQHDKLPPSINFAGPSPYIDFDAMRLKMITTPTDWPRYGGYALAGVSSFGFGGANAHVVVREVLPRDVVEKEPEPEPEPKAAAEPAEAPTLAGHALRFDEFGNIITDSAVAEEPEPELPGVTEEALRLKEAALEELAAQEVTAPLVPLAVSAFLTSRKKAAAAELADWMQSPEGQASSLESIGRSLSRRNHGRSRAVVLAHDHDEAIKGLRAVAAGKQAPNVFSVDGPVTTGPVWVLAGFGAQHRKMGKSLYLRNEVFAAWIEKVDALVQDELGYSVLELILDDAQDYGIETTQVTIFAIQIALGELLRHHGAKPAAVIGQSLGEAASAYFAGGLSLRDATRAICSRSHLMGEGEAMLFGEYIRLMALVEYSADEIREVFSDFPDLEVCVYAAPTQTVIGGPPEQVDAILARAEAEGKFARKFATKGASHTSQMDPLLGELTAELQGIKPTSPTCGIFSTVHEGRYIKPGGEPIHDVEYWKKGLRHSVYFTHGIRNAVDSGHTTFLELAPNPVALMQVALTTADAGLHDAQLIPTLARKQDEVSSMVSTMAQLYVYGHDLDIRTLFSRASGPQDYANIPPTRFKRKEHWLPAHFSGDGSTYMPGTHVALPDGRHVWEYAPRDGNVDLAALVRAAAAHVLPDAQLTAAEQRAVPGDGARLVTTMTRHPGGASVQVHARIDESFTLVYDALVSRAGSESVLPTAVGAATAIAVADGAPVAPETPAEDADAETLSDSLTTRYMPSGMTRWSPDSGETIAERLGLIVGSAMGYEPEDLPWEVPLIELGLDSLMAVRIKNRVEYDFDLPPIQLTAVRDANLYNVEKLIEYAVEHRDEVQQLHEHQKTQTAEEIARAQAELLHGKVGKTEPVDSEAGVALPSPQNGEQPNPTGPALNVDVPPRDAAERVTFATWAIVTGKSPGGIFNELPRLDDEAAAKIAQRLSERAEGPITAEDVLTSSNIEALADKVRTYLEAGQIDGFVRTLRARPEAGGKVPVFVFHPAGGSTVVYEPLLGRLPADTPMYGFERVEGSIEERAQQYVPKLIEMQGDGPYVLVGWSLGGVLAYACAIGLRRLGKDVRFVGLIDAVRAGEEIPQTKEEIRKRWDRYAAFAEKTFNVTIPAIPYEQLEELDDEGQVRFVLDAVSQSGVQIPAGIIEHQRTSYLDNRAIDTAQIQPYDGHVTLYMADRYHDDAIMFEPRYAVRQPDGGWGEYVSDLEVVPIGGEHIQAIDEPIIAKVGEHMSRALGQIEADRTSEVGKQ
UniProt P9WFT3, whole entry: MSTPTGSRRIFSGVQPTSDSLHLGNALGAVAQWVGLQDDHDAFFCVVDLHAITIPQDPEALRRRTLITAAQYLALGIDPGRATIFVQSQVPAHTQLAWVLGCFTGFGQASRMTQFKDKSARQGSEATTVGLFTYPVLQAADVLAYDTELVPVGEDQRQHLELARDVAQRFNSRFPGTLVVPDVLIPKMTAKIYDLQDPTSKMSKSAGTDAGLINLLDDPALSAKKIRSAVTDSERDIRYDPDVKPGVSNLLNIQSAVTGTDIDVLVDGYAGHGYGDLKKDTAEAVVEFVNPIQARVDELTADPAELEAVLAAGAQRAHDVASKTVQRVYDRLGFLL

A: 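Protease assay of ClpP1P2, read by the AMC dye that it sets free. Target: ClpP1P2, Mycobacterium tuberculosis (UniProt P9WPC5 and UniProt P9WPC3). Concentration: 50 µM. Higher reads as stronger inhibition, judged from the few compounds that gave an IC50. Most other retested compounds had strongly negative values. Of about 69,000 compounds tested this way, about 10 (0.015%) reached 50% or more in at least one test.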
B: 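Enzyme assay of the thioesterase domain of polyketide synthase 13; the read-out is not stated. Target: Polyketide synthase Pks13, Mycobacterium tuberculosis (UniProt I6X8D2). Concentration: 30 µM. Higher reads as stronger inhibition (inferred from which compounds were picked for retests). Of about 67,000 compounds tested this way, about 300 (0.46%) reached 50% or more in at least one test.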
C: 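Tryptophan-tRNA ligase, Mycobacterium tuberculosis (UniProt P9WFT3). Enzyme assay of tryptophanyl-tRNA synthetase; the read-out is not stated. Tested at 10 µM. Direction is not recorded; retested compounds ran higher, which suggests that high means inhibition. Size under these conditions: about 65,000 compounds, about 64 of them at 50% or above in at least one test.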

The filed quantity is “Percent Effect” (%). The record does not define 0% and 100%; most values in the screen are far below 50% and negative numbers occur (in some assays of this library far below -100). The compounds are a random part of those screened. A dash means the value is not listed here; it may have been measured.

| structure | A | B | C |
|---|---|---|---|
| `COCc1nc(C(=O)NS(=O)(=O)c2cc(F)ccc2F)cs1` | 9.837 | -13.97 | -2.004 |
| `CCN(C)Cc1nc(-c2ccccc2NS(C)(=O)=O)oc1C` | -0.3693 | -37.34 | 0.3096 |
| `CCCn1ncc(C(=O)N(C)Cc2n[nH]c3c2CCC3)c1C` | -18.34 | -3.648 | -1.737 |
| `CN1CC(Nc2nc3c(cnn3-c3ccccc3)c(=O)[nH]2)CCC1=O` (centres undefined) | 1.85 | -8.893 | 3.028 |
| `Cc1nnc(-c2cccc(C#N)c2)n1C1CCN(C(C)C)C1=O` (centres undefined) | -0.04881 | -9.489 | 5.509 |
| `Cc1nc(C2CCCN2CC(=O)NCCOc2ccc(F)cc2)no1` (centres undefined) | -14.65 | - | 35.57 |
| `CNC(=O)CN1C(=O)CCC12CCCN(Cc1cccc(F)c1)C2` (centres undefined) | -10.63 | -20.49 | -1.859 |
| `CN(C)C(=O)N1C[C@@H]2CC[C@H](C1)N(S(=O)(=O)c1cccnc1)C2` | -8.753 | -27.35 | -1.725 |
| `CC(=O)N1CCCC(c2ccnc(Nc3cnccn3)n2)C1` (centres undefined) | -8.049 | -21.39 | - |
| `CN1CC(=O)N(c2cccc(F)c2)CC12CCN(Cc1nccs1)C2` (centres undefined) | -8.812 | -13.15 | -4.064 |
| `CC(Cn1ccnc1)NC(=O)C1(c2ccc3c(c2)OCCO3)CCCC1` (centres undefined) | 9.179 | -20.34 | 2.754 |
| `CC(=O)Nc1ccc(CN2CCc3[nH]cnc3C2c2nccn2C)cc1` (centres undefined) | -15.1 | - | 0.4996 |
| `C[C@@H]1CN(C(=O)Nc2cccc(OC(F)F)c2)CC(C(N)=O)O1` (some centres undefined) | -6.605 | -14.88 | -0.9166 |
| `O=C(NC1CC1)C1CCN(c2cccc(C(F)(F)F)n2)CC1` | -1.539 | -28.54 | -4.775 |
| `CN1CC[C@H]2CN(C(=O)c3csc(Cc4ccccc4)n3)C[C@H]21` | -2.71 | -37.86 | 5.047 |
| `Cc1ccc(OCCN(C)Cc2nccn2C)c(C)c1` | -7.223 | -11.93 | 1.027 |
| `CC(C)c1ncc(C(=O)N2CCOCC2CC(=O)c2ccco2)s1` (centres undefined) | 1.785 | -0.8621 | 1.174 |
| `Cc1cc(C)n(Cc2ccc(C(=O)NCCN3CCOCC3)cc2)n1` | -1.643 | -5.994 | -4.929 |
| `O=C1CCOC[C@]2(CN(Cc3ccccc3)C[C@H]2c2ccccc2F)N1` | -8.502 | -5.67 | -3.143 |
| `COc1ccccc1NC(=O)c1cc2c([nH]c1=O)CCCC2=O` | -7.186 | -12.6 | 0.7341 |
| `Cc1cccc(COC[C@]23COC[C@H]2CN(c2ncccn2)C3)n1` | 2.317 | -15.69 | -0.382 |
| `O=C(NCC1CC1)C1CN(C(=O)Cc2cccs2)CC12CCOCC2` (centres undefined) | -7.759 | -5.667 | 0.4647 |
| `CC(C)Oc1ccccc1OCCN1C(=O)CCNC1=O` | 24.66 | 0.7045 | 2.592 |
| `CCCOC1CCCN(C(=O)Cn2cccc(C(F)(F)F)c2=O)C1` (centres undefined) | -12.58 | -35.16 | -2.498 |
| `CN(CCCNC(=O)C1CCc2cn[nH]c2C1)c1ccccc1` (centres undefined) | -3.829 | -7.699 | 0.9497 |
| `CCc1nc2n(n1)CC(NCc1ccccc1OCC(=O)NC)CC2` (centres undefined) | -1.751 | -23.7 | 3.561 |
| `O=C(NC1CCN(C2CC2)CC1)c1cn(-c2ccc(Cl)cc2)nn1` | -4.386 | -11.05 | -1.943 |
| `CS(=O)(=O)NC1CCCN(C(=O)NCc2cc[nH]n2)C1` (centres undefined) | 4.804 | -11.62 | -2.737 |
| `CCOc1cccc(CCNC(=O)Cc2ccn[nH]2)n1` | -29.67 | -11.88 | -4.063 |
| `Cn1c(Cn2ccnc2)nnc1C1CCN(Cc2cccnc2N)CC1` | -12.29 | 6.475 | -3.602 |
| `CN(CC(F)(F)F)C(=O)CN1CCC(c2cc3ccccc3[nH]2)CC1` | 2.818 | -32.2 | 2.233 |
| `CCC(C)(C)NC(=O)c1ncn2c1CN(C)S(=O)(=O)c1ccccc1-2` | 29.61 | -3.789 | 1.943 |
| `CCS(=O)(=O)c1ccccc1N1CCC(N)CC1` | -8 | 0.3738 | -8.442 |
| `CC(C)c1nc(C2CCCN2C(=O)CN(C)Cc2ccccc2)no1` (centres undefined) | -9.692 | -12.5 | 2.949 |
| `Cc1ccc(CNCc2ccc(N3CCC(CO)CC3)nc2)c(C)c1` | -1.612 | 4.42 | 2.626 |
| `NC(=O)Cn1c(SCc2noc(-c3ccsc3)n2)nnc1C1CC1` | 7.519 | -13.08 | -3.749 |
| `Clc1ccc2nc(N3CCC(NCCCC4CCOC4)CC3)sc2c1` (centres undefined) | -7.07 | -3.876 | -2.973 |
| `CCCn1nccc1NC(=O)c1ccc(Cl)c(N2CCNC2=O)c1` | -6.525 | -6.291 | -1.56 |
| `COc1nccnc1N1CCC2(CCCN(C(C)C)C2=O)C1` (centres undefined) | -6.525 | -35.83 | -0.8704 |
| `CC(C)NC(=O)CN(C)C(=O)c1c(Br)c2ccccc2n1C` | -2.492 | -30.53 | 1.188 |
| `COC(=O)c1ccc(CN2CCN(Cc3nc(C)no3)CC2)s1` | 0.7506 | -15.68 | 2.323 |
| `COCCOc1cccc(CNCc2c(C)nn(C)c2N(C)C)c1` | -14.48 | -16.09 | -3.12 |
| `CCC(CO)N(Cc1ccccn1)C(=O)c1ccc(C)c(Cl)c1` (centres undefined) | -0.3308 | -18.28 | -2.668 |
| `CC(C)(C)CCS(=O)(=O)NCCc1csc(N2CCCC2)n1` | -0.8019 | -45.22 | -4.721 |
| `O=C(O)Cn1ccc2c(Cl)cccc21` | 10.19 | -5.207 | -3.614 |
| `OCC(CO)Nc1cccc(C(F)(F)F)n1` | -1.35 | -24.75 | -2.275 |
| `O=C(c1ccc(NC2CC2)nc1)N1CCCC(n2ccnc2)C1` (centres undefined) | 1.901 | -28.34 | -2.95 |
| `c1cncc(O[C@H]2COCCN(CC3CC3)C2)c1` | -3.898 | -35.97 | 0.9863 |
| `O=S(=O)(NCCc1nnc2ccccn12)c1cccnc1` | 1.586 | 21.93 | 8.249 |
| `CCc1nsc(N2CCCN(C(=O)COc3ccccc3)CC2)n1` | -2.808 | -35.85 | -2.624 |
| `CN(CC(C)(CO)CO)C(=O)Nc1cc(Cl)cc(Cl)c1` | 1.21 | -11.83 | -0.8972 |
| `O=C(CCN1CCCC1c1ccccn1)N1CCc2ccccc2C1` (centres undefined) | 4.814 | -19.4 | -3.636 |
| `O=C(NCCn1nc(C2CCNC2)c2cccnc21)C1CCC1` (centres undefined) | 5.065 | -6.69 | - |
| `Cn1ccc2c(C(=O)N3CC[C@@]4(O)CCCC[C@H]4C3)cccc21` | -3.31 | 2.981 | 2.171 |
| `CC(NC(=O)NC1CCN(Cc2ccncc2)CC1)c1ccc(F)cc1` (centres undefined) | 0.961 | -4.329 | -3.695 |
| `CCN1C[C@@H]2CN(C(=O)c3cccn3C)C[C@@H]2C1=O` | -5.341 | -0.1617 | -3.352 |
| `O=C1C(n2nnc(-c3cccs3)n2)CCN1CC(F)(F)F` (centres undefined) | -10.05 | -26.67 | 2.688 |
| `CCC[C@H]1CN(CCS(C)(=O)=O)C[C@@H]1NC(=O)c1ccn(C)n1` | -8.893 | -6.3 | 0.854 |
| `Cc1onc(-c2ccncc2)c1C(=O)NC1CCCOC1` (centres undefined) | -3.495 | 13.66 | -5.679 |
| `c1cnc(N2C[C@H]3CCN(CC4CC4)C[C@H]3C2)cn1` | -11.53 | 7.604 | - |
| `COCC(C)N1CCc2onc(-c3ccc(F)c(F)c3)c2C1` (centres undefined) | -94.69 | 18.01 | 1.881 |
| `CN(C)S(=O)(=O)N1C[C@@H](Oc2ccccn2)[C@H]2OCCC[C@H]21` | -10.88 | -17.79 | 0.5513 |
| `CSCC(=O)N1CCCC(CO)(CC2CC2)C1` (centres undefined) | -6.476 | -14.64 | 6.692 |
| `COc1nn(C)cc1C(=O)N1CCC(c2ccccc2)C1` (centres undefined) | 0.3346 | -13.25 | -2.205 |
| `CCn1nc2c(cc1=O)CN(Cc1coc(-c3ccccc3)n1)CC2` | -30.29 | 0.2346 | 0.8475 |
| `COCc1nc(C)cc(Nc2ccc3c(c2)CC(=O)N3)n1` | -2.447 | -7.464 | -1.488 |
| `Cc1ccccc1N1CC(C)N(Cc2ccc(C)c(F)c2F)CC1=O` (centres undefined) | -4.447 | -4.293 | 0 |
| `CCn1cnnc1CNC(=O)N1CCN(CCc2ccccc2)CC1` | -40.64 | -12.18 | -1.129 |